The values below come from article PMC1479839 (BMC Biology, 2006).

By UniProt entry, the sequences of proteins in these tests, tags left out. Residues count along the entry.
UniProt Q9HBE5, residues 20-232: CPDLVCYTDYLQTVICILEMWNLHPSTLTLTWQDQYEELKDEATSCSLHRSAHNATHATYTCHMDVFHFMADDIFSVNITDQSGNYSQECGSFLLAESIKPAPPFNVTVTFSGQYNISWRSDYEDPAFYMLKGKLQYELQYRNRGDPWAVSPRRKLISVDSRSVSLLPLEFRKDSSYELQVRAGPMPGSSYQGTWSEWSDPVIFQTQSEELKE

These are yes or no findings as the source states them, for the method shown.

To fix the notation:
B1: IL-4 variant F82D (ligand, human, UniProt P05112 25-153, looked up)
chain: HKCDITLQEIIKTLNSLTEQKTLCTELTVTDIFAASKNTTEKETFCRAATVLRQFYSHHEKDTRCLGATAQQFHRHKQLIRDLKRLDRNLWGLAGLNSCPVKEANQSTLENFLERLKTIMREKYSKCSS
notes: interleukin 4, human; also called IL4-F82D; IL-4F82D
B2: IL-4 variant T13D (ligand, human, UniProt P05112 25-153, looked up)
chain: HKCDITLQEIIKDLNSLTEQKTLCTELTVTDIFAASKNTTEKETFCRAATVLRQFYSHHEKDTRCLGATAQQFHRHKQLIRFLKRLDRNLWGLAGLNSCPVKEANQSTLENFLERLKTIMREKYSKCSS
notes: interleukin 4, human; also called IL4-T13D; IL-4T13D

The target in the experiment is receptor ectodomain of IL-21R (UniProt Q9HBE5). The experiment in a line: SPR; BIAcore; direct binding of IL-4, T13D and F82D to the receptor subunits IL-13Rα1, γc and IL-21R alone; both purified.
With “human interleukin 4 (wild type) (from UniProt P05112 25-153) (ligand)”, the binding entry is “no binding”.

As to B1, the binding result was “no binding”.

On to B2, for which the binding entry is “no binding”.
